# Assay results as given in US20090156542.
# Sequences of proteins named here, by UniProt entry; tags and fusion partners are left off. Residues count along the entry.
# UniProt P28292, 24-125: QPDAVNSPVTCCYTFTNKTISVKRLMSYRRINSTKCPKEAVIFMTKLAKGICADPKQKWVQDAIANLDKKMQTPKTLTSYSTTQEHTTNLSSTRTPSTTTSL
# UniProt P14844, 24-148: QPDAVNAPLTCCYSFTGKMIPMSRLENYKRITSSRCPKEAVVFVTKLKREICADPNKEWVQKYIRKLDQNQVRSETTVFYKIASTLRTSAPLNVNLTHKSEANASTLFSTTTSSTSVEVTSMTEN
# UniProt P51671, 24-97: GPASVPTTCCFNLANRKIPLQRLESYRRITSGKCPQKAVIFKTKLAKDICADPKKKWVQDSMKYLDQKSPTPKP
# UniProt P80075, 24-99: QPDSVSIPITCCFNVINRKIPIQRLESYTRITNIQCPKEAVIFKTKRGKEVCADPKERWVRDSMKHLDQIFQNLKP
# UniProt P52203, 24-99: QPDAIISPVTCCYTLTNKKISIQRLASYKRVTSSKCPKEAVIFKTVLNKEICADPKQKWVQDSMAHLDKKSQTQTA
# UniProt P10148, 24-148: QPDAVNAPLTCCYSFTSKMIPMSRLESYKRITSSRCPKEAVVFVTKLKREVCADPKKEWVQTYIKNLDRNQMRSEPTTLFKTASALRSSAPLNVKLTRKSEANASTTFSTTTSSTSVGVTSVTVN
# UniProt Q99616, 17-98: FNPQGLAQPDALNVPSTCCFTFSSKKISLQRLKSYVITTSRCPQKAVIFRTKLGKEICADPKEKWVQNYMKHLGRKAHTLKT
# UniProt P42830, 38-114: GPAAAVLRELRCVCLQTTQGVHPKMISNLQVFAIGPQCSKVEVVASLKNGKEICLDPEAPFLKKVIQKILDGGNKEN
# For part of these data: A negative result means that nothing was seen under these conditions. For part of these data: Protein sequences can lack the tags named with them. For part of these data: The exact form of at least one protein or probe is not confirmed. For part of these data: The comparison behind a weaker result is the experiment's own reference, which may not be listed here.
# Columns and labels:
# [1] = target: human MCP-1 (CCL2, natural L-form) (Homo sapiens) (UniProt P13500); assay: SPR; conditions: L-RNA, 37 C, purified recombinant protein, protein details: recombinant, Bachem for cell assays, mirror-image nucleic acid
# [2] = target: human MCP-1 (CCL2, natural L-form) (Homo sapiens) (UniProt P13500); assay: activity in cells; conditions: L-RNA, purified recombinant protein, protein details: recombinant, Bachem for cell assays, mirror-image nucleic acid
# [3] = target: rabbit MCP-1 (Oryctolagus cuniculus) (UniProt P28292); assay: SPR; conditions: L-RNA, purified recombinant protein, mirror-image nucleic acid
# [4] = target: rat MCP-1 (Rattus norvegicus) (UniProt P14844); assay: SPR; conditions: L-RNA, not recognized, purified recombinant protein, mirror-image nucleic acid
# [5] = target: human eotaxin (CCL11) (Homo sapiens) (UniProt P51671); assay: SPR; conditions: L-RNA, 37 C, purified recombinant protein, mirror-image nucleic acid
# [6] = target: human MCP-2 (CCL8) (Homo sapiens) (UniProt P80075); assay: SPR; conditions: L-RNA, 37 C, purified recombinant protein, mirror-image nucleic acid
# [7] = target: human MCP-3 (CCL7) (Homo sapiens) (UniProt P80098); assay: SPR; conditions: L-RNA, 37 C, purified recombinant protein, mirror-image nucleic acid
# [8] = target: monkey MCP-1 (Macaca mulatta) (UniProt P61275); assay: SPR; conditions: L-RNA, 37 C, purified recombinant protein, mirror-image nucleic acid
# [9] = target: canine MCP-1 (Canis familiaris) (UniProt P52203); assay: SPR; conditions: L-RNA, purified recombinant protein, mirror-image nucleic acid
# [10] = target: porcine MCP-1 (Sus scrofa) (UniProt P42831); assay: SPR; conditions: L-RNA, purified recombinant protein, mirror-image nucleic acid
# [11] = target: murine MCP-1 (CCL2) (Mus musculus) (UniProt P10148); assay: SPR; conditions: L-RNA, not recognized, purified recombinant protein, mirror-image nucleic acid
# [12] = target: T1, human MIP-1alpha (CCL3) (Homo sapiens) (UniProt P10147); assay: activity in cells; conditions: L-RNA; no inhibition of MIP-1alpha induced THP-1 chemotaxis up to 1 uM; purified recombinant protein; mirror-image nucleic acid
# T1 sequence: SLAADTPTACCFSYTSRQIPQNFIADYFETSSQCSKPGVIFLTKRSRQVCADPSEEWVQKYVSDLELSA
# [13] = target: T2, human Lymphotactin (XCL1) (Homo sapiens) (UniProt P47992); assay: SPR; conditions: L-RNA; 100 nM chemokine, 37 C; panel membership from sequence table; purified recombinant protein; label: 5'-biotin; synthetic backbone; mirror-image nucleic acid
# T2 sequence: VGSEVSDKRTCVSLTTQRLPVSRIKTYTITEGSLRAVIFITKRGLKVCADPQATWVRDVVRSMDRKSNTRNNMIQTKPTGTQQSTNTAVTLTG
# [14] = target: human GROgamma (CXCL3) (Homo sapiens) (UniProt P19876); assay: SPR; conditions: L-RNA; 100 nM chemokine, 37 C; panel membership from sequence table; purified recombinant protein; label: 5'-biotin; synthetic backbone; mirror-image nucleic acid
# [15] = target: human IL-8 (CXCL8) (Homo sapiens) (UniProt P10145); assay: SPR; conditions: L-RNA; 100 nM chemokine, 37 C; panel membership from sequence table; purified recombinant protein; label: 5'-biotin; synthetic backbone; mirror-image nucleic acid
# [16] = target: T1, human MIP-1alpha (CCL3) (Homo sapiens); assay: SPR; conditions: L-RNA; immobilized aptamer, 100 nM chemokine, 37 C; purified recombinant protein; label: 5'-biotin; mirror-image nucleic acid; variant of NOX-E36 (180-D1-036)
# [17] = target: T3, human NAP-2 (CXCL7) (Homo sapiens) (UniProt P02775); assay: SPR; conditions: L-RNA; immobilized aptamer, 100 nM chemokine, 37 C; purified recombinant protein; label: 5'-biotin; mirror-image nucleic acid; variant of NOX-E36 (180-D1-036)
# T3 sequence (limits assumed): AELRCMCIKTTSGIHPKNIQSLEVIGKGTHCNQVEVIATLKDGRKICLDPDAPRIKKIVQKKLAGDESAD
# [18] = target: human MCP-4 (CCL13) (Homo sapiens) (UniProt Q99616); assay: SPR; conditions: L-RNA; 100 nM chemokine, 37 C; kinetics in FIG. 24C only; purified recombinant protein; label: 5'-biotin; synthetic backbone; mirror-image nucleic acid
# [19] = target: human IP-10 (CXCL10) (Homo sapiens) (UniProt P02778); assay: SPR; conditions: L-RNA; 100 nM chemokine, 37 C; panel membership from sequence table; purified recombinant protein; label: 5'-biotin; synthetic backbone; mirror-image nucleic acid
# [20] = target: T4, human I-TAC (CXCL11) (Homo sapiens) (UniProt O14625); assay: SPR; conditions: L-RNA; 100 nM chemokine, 37 C; panel membership from sequence table; purified recombinant protein; label: 5'-biotin; synthetic backbone; mirror-image nucleic acid
# T4 sequence: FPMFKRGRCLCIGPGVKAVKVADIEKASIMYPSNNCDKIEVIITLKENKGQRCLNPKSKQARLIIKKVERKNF
# [21] = target: T5, human PF4 (CXCL4) (Homo sapiens) (UniProt P02776); assay: SPR; conditions: L-RNA; 100 nM chemokine, 37 C; panel membership from sequence table; purified recombinant protein; label: 5'-biotin; synthetic backbone; mirror-image nucleic acid
# T5 sequence: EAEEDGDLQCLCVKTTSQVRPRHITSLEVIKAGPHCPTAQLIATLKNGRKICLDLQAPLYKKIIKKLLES
# [22] = target: T6, human I-309 (CCL1) (Homo sapiens) (UniProt P22362); assay: SPR; conditions: L-RNA; 100 nM chemokine, 37 C; panel membership from sequence table; purified recombinant protein; label: 5'-biotin; synthetic backbone; mirror-image nucleic acid
# T6 sequence: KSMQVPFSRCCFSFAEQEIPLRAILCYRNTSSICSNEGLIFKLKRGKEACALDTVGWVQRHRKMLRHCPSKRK
# [23] = target: T7, human Fractalkine (CX3CL1) (Homo sapiens) (UniProt P78423); assay: SPR; conditions: L-RNA; 100 nM chemokine, 37 C; panel membership from sequence table; purified recombinant protein; label: 5'-biotin; synthetic backbone; mirror-image nucleic acid
# T7 sequence: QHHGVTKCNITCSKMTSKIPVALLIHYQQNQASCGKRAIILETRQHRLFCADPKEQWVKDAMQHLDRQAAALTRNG
# [24] = target: human SDF-1beta (CXCL12beta) (Homo sapiens) (UniProt P48061); assay: SPR; conditions: L-RNA; 100 nM chemokine, 37 C; panel membership from sequence table; purified recombinant protein; label: 5'-biotin; synthetic backbone; mirror-image nucleic acid
# [25] = target: human SDF-1alpha (CXCL12alpha) (Homo sapiens) (UniProt P48061); assay: SPR; conditions: L-RNA; 100 nM chemokine, 37 C; panel membership from sequence table; purified recombinant protein; label: 5'-biotin; synthetic backbone; mirror-image nucleic acid
# [26] = target: T8, human MIP-1beta (CCL4) (Homo sapiens) (UniProt P13236); assay: SPR; conditions: L-RNA; 100 nM chemokine, 37 C; panel membership from sequence table; purified recombinant protein; label: 5'-biotin; synthetic backbone; mirror-image nucleic acid
# T8 sequence: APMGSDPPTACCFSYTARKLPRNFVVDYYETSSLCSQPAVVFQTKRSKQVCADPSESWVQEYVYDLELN
# [27] = target: human ENA-78 (CXCL5) (Homo sapiens) (UniProt P42830); assay: SPR; conditions: L-RNA; 100 nM chemokine, 37 C; panel membership from sequence table; purified recombinant protein; label: 5'-biotin; synthetic backbone; mirror-image nucleic acid
# [28] = target: T9, human HCC-1 (CCL14) (Homo sapiens) (UniProt Q16627); assay: SPR; conditions: L-RNA; 100 nM chemokine, 37 C; panel membership from sequence table; purified recombinant protein; label: 5'-biotin; synthetic backbone; mirror-image nucleic acid
# T9 sequence: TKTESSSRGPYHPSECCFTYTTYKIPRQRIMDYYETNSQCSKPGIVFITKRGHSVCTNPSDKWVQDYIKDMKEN
# [29] = target: T10, human RANTES (CCL5) (Homo sapiens) (UniProt P13501); assay: SPR; conditions: L-RNA; 100 nM chemokine, 37 C; panel membership from sequence table; purified recombinant protein; label: 5'-biotin; synthetic backbone; mirror-image nucleic acid
# T10 sequence: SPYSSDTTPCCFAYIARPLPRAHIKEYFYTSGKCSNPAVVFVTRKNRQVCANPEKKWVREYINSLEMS
# [30] = target: murine MCP-1 (CCL2) (Mus musculus) (UniProt P10148); assay: activity in cells; conditions: L-RNA, Ca release, purified recombinant protein, mirror-image nucleic acid
# [31] = range stated for 181-A2 and its derivatives, variant of 181-A2 Spiegelmer
# [32] = range for human, monkey, porcine, canine MCP-1, 37 C
# [33] = immobilized aptamer, 100 nM chemokine, label: 5'-biotin, variant of NOX-E36 (180-D1-036)
# [34] = much lower affinity than human MCP-1, variant of 181-A2 Spiegelmer
sequence,measurement,setting,value
GUGGCGUAGUGAGAAACUACCAACGACUGGCUAGAGCCGGCCAC [181-A2-005],binding result,[1]; [31],binds
GUGCGCGUAGUGAGAAACUACCAACGACUGGCUAGAGCCGGCGCAC [181-A2-002],binding result,[1]; [31],binds
GUGCUGCGUAGUUAAAAACUACCAGCGACUGGCUAGAGCCGGCAGCAC [178-D5 Spiegelmer],IC50,[2]; Ca release and chemotaxis,0.5 nM
GCACGUCCCUCACCGGUGCAAGUGAAGCCGUGGCUCUGCG [NOX-E36 (180-D1-036)],binding result,[3]; not recognized,no binding
same,binding result,[4],no binding
same,binding result,[5],binds
same,binding result,[6],binds
same,binding result,[7]; not recognized,no binding
same,binding result,"[8]; range for human, monkey, porcine, canine MCP-1",binds
same,binding result,[9]; [32],binds
same,binding result,[10]; [32],binds
same,binding result,[11],no binding
same,functional effect of the aptamer,[12],not active
same,IC50,"[2]; THP-1 chemotaxis, 0.5 nM MCP-1",0.5 nM
CCGCGUAGUGAGAAACUACCAACGACUGGCUAGAGCCGGCGG [181-A2-021],binding result,[1]; [31],binds
GCACGUCCCUCACCGGUGCAAGUGAAGCCGUGGCUCUGCG [biotinylated NOX-E36],binding result,[13],no binding
same,binding result,[14],no binding
same,binding result,[15],no binding
same,binding result,[5]; [33],binds
same,binding result,[16],binds
same,binding result,[17],binds
same,binding result,[6]; [33],binds
same,binding result,[18],no binding
same,binding result,[19],no binding
same,binding result,[20],no binding
same,binding result,[21],no binding
same,binding result,[1]; [33],binds
same,binding result,[22],no binding
same,binding result,[23],no binding
same,binding result,[24],no binding
same,binding result,[25],no binding
same,binding result,[26],no binding
same,binding result,[27],no binding
same,binding result,[28],no binding
same,binding result,[29],no binding
GUGCCGUAGUGAGAAACUACCAACGACUGGCUAGAGCCGGGCAC [181-A2-004],binding result,[1]; [31],binds
GUGCUGCGUAGUGAGAAACUACCAACGACUGGCUAGAGCCGGCAGCAC [181-A2 Spiegelmer],binding result,[1],binds
same,IC50,[2]; Ca release and chemotaxis,0.5 nM
GGCGACAUUGGUUGGGCAUGAGGCGAGGCCCUUUGAUGAAUCCGCGGCCA [mNOX-E36-3'PEG],IC50,"[30]; 3'-PEG, chemotaxis IC50 approx 3 nM (FIG. 31), variant of mNOX-E36 (188-A3-007)",8 nM
CGGCGUAGUGAGAAACUACCAACGACUGGCUAGAGCCGGCCG [181-A2-020],binding result,[1]; [31],binds
GUCGCGUAGUGAGAAACUACCAACGACUGGCUAGAGCCGGCGAC [181-A2-006],binding result,[1]; [31],binds
CUGCGUAGUGAGAAACUACCAACGACUGGCUAGAGCCGGCAG [181-A2-023],binding result,[1]; [31],binds
GAGCGUAGUGAGAAACUACCAACGACUGGCUAGAGCCGGCUC [181-A2-019],binding result,[1]; [31],binds
GGGCGUAGUGAGAAACUACCAACGACUGGCUAGAGCCGGCCC [181-A2-018],binding result,[3]; [34],binds more weakly
same,binding result,[4]; variant of 181-A2 Spiegelmer,no binding
same,binding result,[5]; variant of 181-A2 Spiegelmer,binds
same,binding result,[6]; variant of 181-A2 Spiegelmer,binds
same,binding result,[7]; variant of 181-A2 Spiegelmer,binds
same,binding result,"[8]; range for human and monkey MCP-1, variant of 181-A2 Spiegelmer",binds
same,binding result,[9]; [34],binds more weakly
same,binding result,[10]; [34],binds more weakly
same,binding result,[11]; variant of 181-A2 Spiegelmer,no binding
GUGCGUAGUGAGAAACUACCAACGACUGGCUAGAGCCGGCAC [181-A2-017],binding result,[1]; [31],binds
GCACGUCCCUCACCGGUGCAAGUGAAGCCGUGGCUCUGCG [NOX-E36-3'PEG],IC50,"[2]; 3'-PEG 40 kDa, Ca release, chemotaxis IC50 <1 nM (FIG. 26), variant of NOX-E36 (180-D1-036)",3 nM
GCACGUCCCUCACCGGUGCAAGUGAAGCCGUGGCUCUGCG [NOX-E36-5'PEG],IC50,"[2]; 5'-PEG 40 kDa, Ca release, chemotaxis IC50 <1 nM (FIG. 27B), variant of NOX-E36 (180-D1-036)",3 nM
UGCGCGUAGUGAGAAACUACCAACGACUGGCUAGAGCCGGCGCA [181-A2-007],binding result,[1]; [31],binds
GGCGACAUUGGUUGGGCAUGAGGCGAGGCCCUUUGAUGAAUCCGCGGCCA [mNOX-E36 (188-A3-007)],IC50,[30]; chemotaxis IC50 approx 7 nM (FIG. 16),12 nM
